Source: PubChem BioAssay AID485364 (National Center for Advancing Translational Sciences (NCATS), 2010)
Hit rate of the full screen: of about 360,000 compounds, about 11,000 (3.1%) were called active. Listed are the inconclusive results; actives and inactives stand elsewhere. The call rests on the fitted dose curve; in most records, active means well fitted inhibition curve with a large enough effect; inconclusive means small, poorly fitted or top-dose-only effect; inactive means no such curve, though single readings can be large or run the other way.

molecular target: Schistosoma mansoni thioredoxin glutathione reductase (TGR) (UniProt Q962Y6); test: qHTS Assay for the Inhibitors of Schistosoma Mansoni Peroxiredoxins; conditions: purified TGR, DTNB reduction, TNB absorbance 405 nm; further: nearly all actives have a fitted effect of over 60% in size
From the text: Schistosomiasis is a major neglected tropical disease that currently affects over 200 million. It is caused by different species of flatworms, such as Schistosoma mansoni. Over the last century, drugs to treat the disease have evolved from potassium antimonyl tartrate, artemisinin, oxamniquine, to praziquantel, with praziquantel remaining the universally-used single drug of choice over the past three decades. However, transmission rates have changed little with praziquantel, and there is evidence for the development of drug resistant parasites. Because there is currently no suitable alternative therapy available, there is an urgent need to identify new targets and drugs for schistosomiasis treatment. Thioredoxin glutathione reductase (TGR), one uniquely positioned S. mansoni enzyme, has been identified as a major component of the worms' distinct and compressed antioxidant "firewall". TGR is a multifunctional enzyme that catalyzes the interconversion between reduced and oxidized forms of both glutathione (GSH) and thioredoxins, thus making it an attractive new antiparasitic target. Recently, a quantitative high-throughput screen of the NIH Molecular Libraries Small Molecule Repository (MLSMR, ~71K at the time of the screen in 2007) was performed using an assay that targeted both TGR and peroxiredoxin2 (Prx2, an H2O2-reducing enzymatic component of the S. mansoni redox "firewall") by following the decrease of NADPH fluorescence. […] In addition, the fluorescence assay was also subject to fluorescence interference from compound library members. […] The assay followed the reduction of 5, 5'-dithiobis (2-nitrobenzoic acid) (DTNB) (Ellman's reagent) by NADPH and measured the increase in absorbance at 412 nm of the reaction product, TNB. […]
Three microliters of reagents (100 uM NADPH and 20 nM TGR or 100 uM NADPH as no-enzyme control) were dispensed into 1,536-well black clear-bottomed plates. […] The plate was transferred to a ViewLux high-throughput CCD imager (Perkin-Elmer, Wellesley, MA) where kinetic measurements of the TNB absorbance were acquired using a 405 excitation filter. […]
Potency means the concentration at half of the fitted maximal effect.

| Structure (SMILES) | Potency |
| --- | --- |
| O=C(OC1CN2CCC1CC2)c1ccc([N+](=O)[O-])cc1 (stereo not drawn) | inconclusive: 0.126 µM |
| COc1ccc(C(=O)NCC2(N3CCCCC3)CCCCC2)cc1 | inconclusive: 44.7 µM |
| COc1ccc(C(=O)NCC2(N3CCOCC3)CCCCC2)cc1OC | inconclusive: 89.1 µM |
